Test results reported in patent US20220280526A1, “AGENT FOR THE TREATMENT OF PSORIASIS” (EBERHARD KARLS UNIVERSITAET TUEBINGEN MEDIZINISCHE FAKULTAET, priority 2019, published 2022).
No constants are given. Whether binding was seen depends on the method and setting. In cells and extracts the contact can be indirect. Some results given as binding are weak or reduced against the parent protein; the word gives no strength.

Protein sequences, listed by entry. Tags and fused reporters are not part of them.
UniProt Q15910: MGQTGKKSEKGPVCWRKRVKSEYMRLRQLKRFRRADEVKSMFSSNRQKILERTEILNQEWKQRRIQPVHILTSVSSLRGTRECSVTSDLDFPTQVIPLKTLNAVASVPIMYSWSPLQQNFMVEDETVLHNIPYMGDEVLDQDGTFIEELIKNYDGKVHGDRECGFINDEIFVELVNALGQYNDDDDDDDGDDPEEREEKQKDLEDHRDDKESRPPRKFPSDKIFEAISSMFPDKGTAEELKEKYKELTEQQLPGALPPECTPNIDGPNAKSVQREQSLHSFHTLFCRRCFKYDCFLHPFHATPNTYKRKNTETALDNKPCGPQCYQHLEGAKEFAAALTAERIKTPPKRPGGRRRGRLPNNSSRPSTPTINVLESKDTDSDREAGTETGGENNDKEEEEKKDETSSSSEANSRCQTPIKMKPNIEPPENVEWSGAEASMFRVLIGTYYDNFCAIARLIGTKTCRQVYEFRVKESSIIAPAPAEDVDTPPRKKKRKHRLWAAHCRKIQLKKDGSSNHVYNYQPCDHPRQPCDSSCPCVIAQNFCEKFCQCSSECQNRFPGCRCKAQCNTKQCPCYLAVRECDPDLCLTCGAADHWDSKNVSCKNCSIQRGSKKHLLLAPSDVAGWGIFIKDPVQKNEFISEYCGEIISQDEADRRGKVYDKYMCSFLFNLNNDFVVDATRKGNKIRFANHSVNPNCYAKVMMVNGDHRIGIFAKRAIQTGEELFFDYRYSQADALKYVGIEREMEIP
UniProt Q00534: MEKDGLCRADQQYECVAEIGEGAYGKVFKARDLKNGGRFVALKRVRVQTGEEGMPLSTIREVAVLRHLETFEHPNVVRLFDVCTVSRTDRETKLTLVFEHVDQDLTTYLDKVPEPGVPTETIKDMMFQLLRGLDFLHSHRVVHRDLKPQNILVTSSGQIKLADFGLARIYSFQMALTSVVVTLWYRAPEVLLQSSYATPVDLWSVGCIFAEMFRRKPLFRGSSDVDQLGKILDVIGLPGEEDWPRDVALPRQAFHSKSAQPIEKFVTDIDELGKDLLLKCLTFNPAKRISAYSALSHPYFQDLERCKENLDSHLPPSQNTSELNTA

Assays:
[1] = target: EZH2 (human) (UniProt Q15910); experiment: co-immunoprecipitation from HEK293T cells, FIG. 5c legend
[2] = target: EZH2 (human) (UniProt Q15910); experiment: co-immunoprecipitation (pulldown with a CDK6-specific antibody) from HEK293T cells overexpressing EZH2 and CDK6

binding [1]: binds | binding [2]: binds
Substance: CDK6 (from UniProt Q00534 1-326) (enzyme)
